Measurements taken from doi:10.1101/2022.10.27.514150.

The chains behind the UniProt entries cited, without tags or fusion partners.
UniProt Q16254: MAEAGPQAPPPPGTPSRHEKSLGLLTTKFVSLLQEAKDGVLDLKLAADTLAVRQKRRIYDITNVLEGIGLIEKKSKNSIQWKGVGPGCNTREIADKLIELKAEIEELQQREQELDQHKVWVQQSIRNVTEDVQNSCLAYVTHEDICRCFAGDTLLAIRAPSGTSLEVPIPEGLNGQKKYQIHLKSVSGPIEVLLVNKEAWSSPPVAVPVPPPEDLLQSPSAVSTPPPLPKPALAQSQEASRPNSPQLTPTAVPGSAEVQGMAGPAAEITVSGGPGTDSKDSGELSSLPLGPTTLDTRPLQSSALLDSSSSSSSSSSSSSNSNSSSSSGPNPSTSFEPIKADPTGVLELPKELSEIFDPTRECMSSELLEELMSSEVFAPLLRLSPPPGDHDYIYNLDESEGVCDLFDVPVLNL

Molecular target: T1, ΔNp73α-TAP (UniProt O15350)
T1 sequence: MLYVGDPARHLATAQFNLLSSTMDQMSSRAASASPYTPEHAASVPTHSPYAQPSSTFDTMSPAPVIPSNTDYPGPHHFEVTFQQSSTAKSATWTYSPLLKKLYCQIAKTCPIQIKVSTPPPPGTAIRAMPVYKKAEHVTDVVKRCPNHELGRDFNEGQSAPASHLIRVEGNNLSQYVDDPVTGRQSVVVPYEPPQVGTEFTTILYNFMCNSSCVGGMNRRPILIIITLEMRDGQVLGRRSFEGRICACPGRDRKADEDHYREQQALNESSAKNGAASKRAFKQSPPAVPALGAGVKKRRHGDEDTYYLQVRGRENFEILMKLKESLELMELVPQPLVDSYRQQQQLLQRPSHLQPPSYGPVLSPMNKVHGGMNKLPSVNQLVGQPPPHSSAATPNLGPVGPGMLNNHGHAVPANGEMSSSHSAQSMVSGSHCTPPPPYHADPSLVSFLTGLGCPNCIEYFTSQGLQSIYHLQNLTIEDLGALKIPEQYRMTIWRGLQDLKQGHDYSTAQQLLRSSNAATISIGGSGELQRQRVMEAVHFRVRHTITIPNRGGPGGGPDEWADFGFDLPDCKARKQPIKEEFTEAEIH
Assay: affinity purification with mass spectrometry

binding: binds
Substance: endogenous E2F4 (38HK) (from UniProt Q16254 1-413)

These are yes or no findings as the source states them, for the method shown. Binding seen in cells or lysates may run through a third protein. A yes stands for co-enrichment or nearness to the bait. Other partners may have been found.
